Test results published in the supplement of paper PMC4604168 (melanoma cell lines).
The list shows a part of the results. Repeats are few or missing, and single values can be far off.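 The apoptosis fraction was the count of cleaved-PARP antibody-stained nuclei relative to all DNA-stained nuclei, imaged in 1,536-well plates. Screening doses were set so most cells survived, and baseline and induced cleaved-PARP levels vary greatly across cell lines.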

The compounds below were run on C32 (assay: cleaved PARP positive nuclei fraction relative to DMSO control; melanoma cells; higher = more apoptosis). Settings: library dose: low library concentration; 72 h.

Point of comparison: `COc1cc(Nc2ncc(F)c(Nc3ccc4c(n3)NC(=O)C(C)(C)O4)n2)cc(OC)c1OC` [Tamatinib] + COc1cc(N2CCC(N3CCN(C)CC3)CC2)ccc1Nc1ncc(Cl)c(Nc2ccccc2S(=O)(=O)C(C)C)n1 [NVP-TAE684] (first compound 0.4 µM, partner dose 0.08 µM), “cleaved PARP positive nuclei fraction” value 198%. Against it:
- Nc1cccc2c1CN(C1CCC(=O)NC1=O)C2=O (configuration not stated) [lenalidomide] + COc1ccc(-c2ccc3c(N4CCOCC4)nc(N4C[C@@H](C)O[C@@H](C)C4)nc3n2)cc1CO [KU0063794] (first compound 1 µM, partner dose 0.02 µM) — lower, 57.7%
- NC(=O)Nc1cc(-c2cccc(F)c2)sc1C(=O)N[C@H]1CCCNC1 + Cn1cc(/C=C2\C(=O)Nc3cccnc32)c2ccccc21 [GW441756] (first compound 0.02 µM, partner dose 0.4 µM) — lower, 67.9%
- NC(=O)Nc1cc(-c2cccc(F)c2)sc1C(=O)N[C@H]1CCCNC1 + CCN(CC)CCCCNc1ncc2cc(-c3cc(OC)cc(OC)c3)c(NC(=O)NC(C)(C)C)nc2n1 [PD173074] (first compound 0.02 µM, partner dose 0.1 µM) — lower, 42.4%
- O=C(CCCCCCC(=O)Nc1ccccc1)NO [vorinostat] + CCCCCCCCCCCC1=C(O)C(=O)C=C(O)C1=O [Embelin] (first compound 0.08 µM, partner dose 1.2 µM) — lower, 110%
- O=C(Nc1cccc(Cl)c1)Nc1ncc(CCNc2ncnc3ccsc23)s1 + COc1ccc(-c2ccc3c(N4CCOCC4)nc(N4C[C@@H](C)O[C@@H](C)C4)nc3n2)cc1CO [KU0063794] (first compound 0.0008 µM, partner dose 0.02 µM) — lower, 156%
- Cc1nc(Nc2ncc(C(=O)Nc3c(C)cccc3Cl)s2)cc(N2CCN(CCO)CC2)n1 [dasatanib] + CCN(CC)CCCCNc1ncc2cc(-c3cc(OC)cc(OC)c3)c(NC(=O)NC(C)(C)C)nc2n1 [PD173074] (first compound 0.004 µM, partner dose 0.1 µM) — lower, 74.3%
- CC1(C)NC(=O)N(c2ccc([N+](=O)[O-])c(C(F)(F)F)c2)C1=O [nilutamide] + COc1ccc(COc2ccc(Cc3cnc(N)nc3N)cc2OC)cc1 [GW2580] (first compound 1 µM, partner dose 1 µM) — lower, 152%
- COCC[n+]1c2c(n(Cc3cnccn3)c1C)C(=O)c1ccccc1C2=O + CCc1ccc(CCOc2ccc(CC3SC(=O)NC3=O)cc2)nc1 [pioglitazone] (first compound 0.0004 µM, partner dose 2 µM) — lower, 124%
- O=C(CCCCCCC(=O)Nc1ccccc1)NO [vorinostat] + COc1ccc(-c2ccc3c(N4CCOCC4)nc(N4C[C@@H](C)O[C@@H](C)C4)nc3n2)cc1CO [KU0063794] (first compound 0.08 µM, partner dose 0.02 µM) — lower, 114%
- COc1cc(Nc2ncc(F)c(Nc3ccc4c(n3)NC(=O)C(C)(C)O4)n2)cc(OC)c1OC [Tamatinib] + O=S(=O)(c1ccccc1)N(CC(F)(F)F)c1ccc(C(O)(C(F)(F)F)C(F)(F)F)cc1 [T0901317] (first compound 0.4 µM, partner dose 1.4 µM) — lower, 35.1%
- NC(=O)Nc1cc(-c2cccc(F)c2)sc1C(=O)N[C@H]1CCCNC1 + O=S(=O)(c1ccccc1)N(CC(F)(F)F)c1ccc(C(O)(C(F)(F)F)C(F)(F)F)cc1 [T0901317] (first compound 0.02 µM, partner dose 1.4 µM) — lower, 80.6%
- Cn1nnc2c(C(N)=O)ncn2c1=O [temozolomide] + COc1ccc(-c2ccc3c(N4CCOCC4)nc(N4C[C@@H](C)O[C@@H](C)C4)nc3n2)cc1CO [KU0063794] (first compound 2 µM, partner dose 0.02 µM) — lower, 62.8%
- Nc1cccc2c1CN(C1CCC(=O)NC1=O)C2=O (configuration not stated) [lenalidomide] + c1cc(-c2cnn3cc(-c4ccc(OCCN5CCCCC5)cc4)cnc23)ccn1 [Dorsomorphin] (first compound 1 µM, partner dose 0.4 µM) — lower, 47.7%
- Cn1cncc1[C@@](N)(c1ccc(Cl)cc1)c1ccc2c(c1)c(-c1cccc(Cl)c1)cc(=O)n2C [tipifarnib] + c1cc(-c2cnn3cc(-c4ccc(OCCN5CCCCC5)cc4)cnc23)ccn1 [Dorsomorphin] (first compound 0.01 µM, partner dose 0.4 µM) — lower, 131%
- Cc1cc(N2CCOCC2)cc2[nH]c(-c3c(NC[C@@H](O)c4cccc(Cl)c4)cc[nH]c3=O)nc12 + Cn1cc(/C=C2\C(=O)Nc3cccnc32)c2ccccc21 [GW441756] (first compound 0.2 µM, partner dose 0.4 µM) — lower, 67.8%
- Cn1c(Nc2ccc(C(F)(F)F)cc2)nc2cc(Oc3ccnc(-c4ncc(C(F)(F)F)[nH]4)c3)ccc21 + Oc1nc(-c2ccc(C(F)(F)F)cc2)nc2c1CSCC2 [XAV939] (first compound 0.08 µM, partner dose 2 µM) — lower, 73.9%
- Cn1nnc2c(C(N)=O)ncn2c1=O [temozolomide] + CC(C)CCN1c2nc(Nc3cc(F)c(O)c(F)c3)ncc2N(C)C(=O)C1C [BID1870] (first compound 2 µM, partner dose 0.2 µM) — lower, 103%
- C[C@]1(c2nc3c(C(N)=O)cccc3[nH]2)CCCN1 [Veliparib] + O=C(O)C(=O)Nc1sc2c(c1C(=O)O)CCNC2 [TCS401] (first compound 1.4 µM, partner dose 1.66667 µM) — lower, 34.6%
- O=C(Nc1cccc(Cl)c1)Nc1ncc(CCNc2ncnc3ccsc23)s1 + COc1cc2ncnc(Nc3ccc(Oc4ccccc4)cc3)c2cc1OC [SrcI1] (first compound 0.0008 µM, partner dose 2 µM) — lower, 86.4%
- NC(=O)Nc1cc(-c2cccc(F)c2)sc1C(=O)N[C@H]1CCCNC1 + O=c1cc(-c2cccc3c2Sc2ccccc2S3)oc(N2CCOCC2)c1 [KU55933] (first compound 0.02 µM, partner dose 1 µM) — lower, 186%
- CC(C)(C)c1cnc(CSc2cnc(NC(=O)C3CCNCC3)s2)o1 + N#Cc1c(O)c2c(-c3ccc(-c4ccccc4O)cc3)csc2[nH]c1=O [A769662] (first compound 0.01 µM, partner dose 2 µM) — lower, 106%
